PMC3607609 (PLoS ONE, 2013)

Columns and labels:
[1] = system: resistant KCl-evoked Ca^2+ responses in SH-SY5Y cells; assay type: cell-based, human; conditions: in presence of CVID and nifedipine; agatoxins and SNX 482 up to 10 µM, mibefradil 30 µM
[2] = system: other Cav subtypes; conditions: cited from earlier work

## COC(=O)C1=C(C)NC(C)=C(C(=O)OC)C1c1ccccc1[N+](=O)[O-] [nifedipine]
[1]
  Effect on resistant KCl-evoked Ca2+ responses (in words): not blocked
[2]
  Effect on other Cav subtypes (in words): does not affect responses of other Cav subtypes
